Results on one molecule are retold here after paper PMC6347170.

Results are given in words; binding and its absence hold for the method and conditions named. Binding seen in cells or lysates may run through a third protein. A yes stands for co-enrichment or nearness to the bait. Other partners may have been found. Where a sequence is shown, tags or fusion partners need not be part of it.

In this experiment the target is T1, His14-Sec61S353C (S. cerevisiae) (UniProt P32915).
T1 sequence: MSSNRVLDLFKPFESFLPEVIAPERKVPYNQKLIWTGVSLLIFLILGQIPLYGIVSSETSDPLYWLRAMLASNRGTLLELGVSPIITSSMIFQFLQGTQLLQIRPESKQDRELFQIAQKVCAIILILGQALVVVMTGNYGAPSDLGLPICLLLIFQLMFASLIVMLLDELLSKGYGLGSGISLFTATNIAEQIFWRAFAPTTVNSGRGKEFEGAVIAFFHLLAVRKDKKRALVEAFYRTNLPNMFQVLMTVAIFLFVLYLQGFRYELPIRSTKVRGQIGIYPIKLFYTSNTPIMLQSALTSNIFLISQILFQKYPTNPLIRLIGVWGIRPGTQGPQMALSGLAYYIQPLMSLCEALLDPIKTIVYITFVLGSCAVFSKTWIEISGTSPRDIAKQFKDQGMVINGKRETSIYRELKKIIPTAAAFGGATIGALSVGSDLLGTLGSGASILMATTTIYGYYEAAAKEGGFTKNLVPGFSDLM
Put plainly: cross-linking + affinity purification with mass spectrometry; 500 eq microsomes of His14-Sec61 or His14-Sec61S353C crosslinked with SMPH or LC-SPDP (DMSO as control), solubilised and denatured (65°C), purified on HisTrap, fractions 3-10 pooled, LC-MS/MS; interactors at least 3-fold enriched over the uncrosslinked sample; crosslinked peptides sought with xQuest/xProphet.

B1: Mpd1 (protein, UniProt Q12404 22-318)
chain: QNFYDSDPHISELTPKSFDKAIHNTNYTSLVEFYAPWCGHCKKLSSTFRKAAKRLDGVVQVAAVNCDLNKNKALCAKYDVNGFPTLMVFRPPKIDLSKPIDNAKKSFSAHANEVYSGARTLAPIVDFSLSRIRSYVKKFVRIDTLGSLLRKSPKLSVVLFSKQDKISPVYKSIALDWLGKFDFYSISNKKLKQLTDMNPTYEKTPEIFKYLQKVIPEQRQSDKSKLVVFDADKDKFWEYEGNSINKNDISKFLRDTFSITPNEGPFSRRSEYIAYLKTGKKPIKKNHSSSGNKHDEL
As for B1, the binding result is “binds”.
